At least one structure is not confirmed: it was looked up by name or label, or the drawing left a doubt.
Test system: human purified monocytes
Assay: Stimulated IL-6 release from human purified monocytes (ELISA)
Type: cell-based
Settings: 24 h, LMW-DS 60-600 µg/ml, heparin 2.0-20 µg/ml, dexamethasone 3.0 µM
Method: Peripheral blood mononuclear cells (PBMC) were isolated from healthy donors through Ficoll-Paque PLUS (GE Healthcare; 11778538) density centrifugation. Monocytes were purified using the EasySep™ human monocyte enrichment kit (StemCell) that purifies monocytes ‘untouched’ to maintain their phenotype.
Monocytes were cultured in the absence (unstimulated PBS vehicle controls) or presence of stimulation (LPS or peptidoglycan) in the absence (vehicle) or presence of LMW-DS (Tikomed AB, Viken, Sweden, WO 2016/076780; three concentrations; top concentration 600 µg/ml, 200 µg/ml and 60 µg/ml), heparin (2.0, 6.0 or 20 µg/ml; equivalent to 0.406, 1.218 and 4.06 units/ml; Sigma Aldrich) or dexamethasone (3.0 µM; Sigma Aldrich) for 24 hours at 37° C., 5% CO2. Following centrifugation, cell culture supernatants were removed and stored at -20° C. awaiting analysis for IL-6 by ELISA. Levels of IL-6 were quantified in the supernatant by ELISA (R&D systems) according to manufacturer’s instructions.

## C[C@@H]1C[C@H]2[C@@H]3CCC4=CC(=O)C=C[C@]4(C)[C@@]3(F)[C@@H](O)C[C@]2(C)[C@@]1(O)C(=O)CO [dexamethasone]
LPS 0.01 ng/ml
  LPS-stimulated IL-6 release: inhibited
Peptidoglycan 30 ng/ml
  peptidoglycan-stimulated IL-6 release: statistically significant inhibition
